Earlier results, collected in US20200121616A1, “COMPOSITIONS COMPRISING CANNABIDIOL AND HYALURONIC ACID FOR TREATING INFLAMMATORY JOINT DISEASES” (BOL PHARMA LTD., priority 2015, published 2020).

C=C(C)[C@@H]1CCC(C)=C[C@H]1c1c(O)cc(CCCCC)cc1O [Cannabidiol]
solubility in organic solvents (organic solvents, such as oil): soluble
solubility in water (water): insoluble
